Key:
[1] = general procedure: Boc solid-phase peptide synthesis; Boc-Pro-O-(PAM)-resin; BOP reagent/DIEA for some couplings; acid chloride coupling; settings: whole synthesis, scale 1 mmole
[2] = general procedure: Boc solid-phase peptide synthesis; chloromethylated resin (Merrifield resin); Boc-L-Pro-O-(PAM)-resin; BOP reagent/DIEA for some couplings; acid chloride coupling; settings: whole synthesis, scale of the general procedure 1 mmole
[3] = general procedure: Boc solid-phase peptide synthesis; Boc-L-Pro-PAM-resin; BOP reagent/DIEA for some couplings; acid chloride coupling; settings: whole synthesis, 214 nM, head-to-tail ring
[4] = general procedure: Boc solid-phase peptide synthesis; Boc-L-Pro-0-(PAM)-resin; BOP reagent/DIEA for some couplings; acid chloride coupling; settings: whole synthesis, scale 1 mmole, head-to-tail ring
[5] = general procedure: Boc solid-phase peptide synthesis; Merrifield resin; BOP reagent/DIEA for some couplings; acid chloride coupling; settings: whole synthesis, scale 2 mmole, head-to-tail ring
[6] = general procedure: Boc solid-phase peptide synthesis; Boc-D-Trp-O-(Merrifield)-resin; BOP reagent/DIEA for some couplings; acid chloride coupling; settings: whole synthesis, scale 1 mmole, head-to-tail ring
[7] = general procedure: Boc solid-phase peptide synthesis; Boc-L-pro-(Merrifield)-resin; BOP reagent/DIEA for some couplings; acid chloride coupling; settings: whole synthesis, 210 nM, head-to-tail ring
peptide synthesis = settings: whole synthesis, HPLC (Method G), scale of the general procedure 1 mmole
[8] = HPLC (Method G), head-to-tail ring

Substance: C-[D-1-Nal-L-Ile-D-Pip-L-(Boc)Lys-D-(N-Me)-Phe-L-Pro]
- isolated mass [1]: 350 mg
- final HPLC purity ([2]; HPLC (Method G)): 99%
- isolated yield [2]: 77%

Substance: c-[D-2-Trytophanyl-L-isoleucinyl-D-pipecolyl-L-piperazin-2-yl-(4-Cbz)-D-histidinyl(BOM)-L-prolyl]
- final HPLC purity [3]: >96%

Substance: c-[D-HomoPhe-L-Phe-D-Pip-L-Pip-D-(N-Me)Phe-L-Pro]
- isolated mass [4]: 340 mg
- final HPLC purity [2, 8]: 95%
- isolated yield ([2]; head-to-tail ring): 43%

Substance: c-[D-Phenylalanyl-L-isoleucinyl-D-piperazin-2-yl (4-Cbz)-L-piperazin-2-yi (4-Cbz)-D-phenylaianyl-L-prolyl]
- crude mass [5]: 1.93 g
- final HPLC purity ([2]; 214 nM, head-to-tail ring): >96%
- isolated yield ([2]; overall, head-to-tail ring): 10%

Substance: c-[D-Trp-L-Ile-D-Pip-L-Pip-D-His-3,4-dehydro-Pro]
- isolated mass [6]: 301 mg
- final HPLC purity [2, 8]: 99%
- isolated yield ([2]; head-to-tail ring): 40%

Substance: c-[D-Tryptophanyl-L-isoleucinyl-D-pipecolyl-D-piperazin-2-yl(4-Cbz)-D-phenylalanyl-L-prolyl]
- final HPLC purity [7]: >94.7%

Substance: c-[D-phenylalanyl-L-isoleucyl-D-Δ-piperazyl-(Nδ-Boc)-L-ornithyl-N-methyl-D-phenylalanyl-L-prolyl]
- final HPLC purity (peptide synthesis): 98.9%

Substance: c-[D-tryptophanyl-L-isoleucyl-D-piperazyl-(Nδ-Boc)-L-ornithyl-D-histidyl-L-prolyl]
- final HPLC purity (peptide synthesis): 92.18%

— patent EP0444898A1 (MERCK & CO. INC., priority 1990, dated 1991)
